# Measured values: US20060030015A1 (published 2006)
# These are yes or no findings as the source states them, for the method shown. Some binding calls cover weakened binding; strength is not graded here.
# B1: i41-7 intact antibody (antibody, V domains shown)
# VH: EIQLQQSGPELVRPGASVKVSCKASGYSFTNSIMYWVRQSHGKSLEWIGYIDPYNGGTSYNQKFKGKATLTVDKSSSTAFMHLNSLTSEDSAVYFCARFIVVVADVMDYWGQGTSVTVSS
# VL: DIVMTQSHKFMSTSVGDRVSITCKASQDVSTAVAWYQQKPGQSPKLLIYWASTRHTEVPDRFTGSGSGTDYTLTISSVQAEDLALYYCQQHYNTPLTFGAGTKLELKR
# Target: light chain of antibody 41S-2 (41S-2-L)
# Assay: ELISA screening of hybridomas
binder,measurement,value
B1,binding,binds
